Experimental data from the supplement of paper PMC7666118.
Some of the results follow.

Chains of the proteins cited; added tags and fusions are not shown. Lines headed by an entry give the natural chain unless they say otherwise; changes in a name come on top.
UniProt Q9P287, whole entry: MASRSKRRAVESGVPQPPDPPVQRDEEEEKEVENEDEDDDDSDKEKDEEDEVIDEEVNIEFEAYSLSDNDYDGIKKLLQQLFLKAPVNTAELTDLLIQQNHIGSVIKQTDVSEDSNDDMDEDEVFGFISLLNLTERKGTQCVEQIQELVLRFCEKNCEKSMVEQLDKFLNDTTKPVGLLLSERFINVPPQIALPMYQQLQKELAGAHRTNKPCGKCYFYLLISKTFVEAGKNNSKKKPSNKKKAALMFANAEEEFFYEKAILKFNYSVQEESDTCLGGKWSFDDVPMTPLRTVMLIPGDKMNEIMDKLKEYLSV
UniProt Q96L58: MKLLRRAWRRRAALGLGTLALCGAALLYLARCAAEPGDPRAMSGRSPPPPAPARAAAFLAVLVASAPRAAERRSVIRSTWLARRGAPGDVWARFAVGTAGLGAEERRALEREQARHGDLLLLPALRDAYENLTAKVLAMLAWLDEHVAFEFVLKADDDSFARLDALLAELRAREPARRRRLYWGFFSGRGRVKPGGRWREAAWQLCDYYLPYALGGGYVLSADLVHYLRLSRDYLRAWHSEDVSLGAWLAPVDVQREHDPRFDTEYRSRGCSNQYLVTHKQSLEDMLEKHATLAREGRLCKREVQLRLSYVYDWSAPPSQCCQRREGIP
UniProt P48047: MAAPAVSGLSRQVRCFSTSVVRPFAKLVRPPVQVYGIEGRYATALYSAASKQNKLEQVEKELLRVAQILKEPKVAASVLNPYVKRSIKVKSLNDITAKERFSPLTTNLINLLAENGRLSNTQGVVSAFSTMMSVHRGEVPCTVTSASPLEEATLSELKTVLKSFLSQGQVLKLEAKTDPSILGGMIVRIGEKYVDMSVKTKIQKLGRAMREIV
UniProt Q96FN9: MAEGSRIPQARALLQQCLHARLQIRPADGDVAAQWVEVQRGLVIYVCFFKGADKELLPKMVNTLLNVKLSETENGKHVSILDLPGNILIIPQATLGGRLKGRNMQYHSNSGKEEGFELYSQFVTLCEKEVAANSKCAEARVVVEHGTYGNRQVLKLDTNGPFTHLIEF
UniProt Q14692: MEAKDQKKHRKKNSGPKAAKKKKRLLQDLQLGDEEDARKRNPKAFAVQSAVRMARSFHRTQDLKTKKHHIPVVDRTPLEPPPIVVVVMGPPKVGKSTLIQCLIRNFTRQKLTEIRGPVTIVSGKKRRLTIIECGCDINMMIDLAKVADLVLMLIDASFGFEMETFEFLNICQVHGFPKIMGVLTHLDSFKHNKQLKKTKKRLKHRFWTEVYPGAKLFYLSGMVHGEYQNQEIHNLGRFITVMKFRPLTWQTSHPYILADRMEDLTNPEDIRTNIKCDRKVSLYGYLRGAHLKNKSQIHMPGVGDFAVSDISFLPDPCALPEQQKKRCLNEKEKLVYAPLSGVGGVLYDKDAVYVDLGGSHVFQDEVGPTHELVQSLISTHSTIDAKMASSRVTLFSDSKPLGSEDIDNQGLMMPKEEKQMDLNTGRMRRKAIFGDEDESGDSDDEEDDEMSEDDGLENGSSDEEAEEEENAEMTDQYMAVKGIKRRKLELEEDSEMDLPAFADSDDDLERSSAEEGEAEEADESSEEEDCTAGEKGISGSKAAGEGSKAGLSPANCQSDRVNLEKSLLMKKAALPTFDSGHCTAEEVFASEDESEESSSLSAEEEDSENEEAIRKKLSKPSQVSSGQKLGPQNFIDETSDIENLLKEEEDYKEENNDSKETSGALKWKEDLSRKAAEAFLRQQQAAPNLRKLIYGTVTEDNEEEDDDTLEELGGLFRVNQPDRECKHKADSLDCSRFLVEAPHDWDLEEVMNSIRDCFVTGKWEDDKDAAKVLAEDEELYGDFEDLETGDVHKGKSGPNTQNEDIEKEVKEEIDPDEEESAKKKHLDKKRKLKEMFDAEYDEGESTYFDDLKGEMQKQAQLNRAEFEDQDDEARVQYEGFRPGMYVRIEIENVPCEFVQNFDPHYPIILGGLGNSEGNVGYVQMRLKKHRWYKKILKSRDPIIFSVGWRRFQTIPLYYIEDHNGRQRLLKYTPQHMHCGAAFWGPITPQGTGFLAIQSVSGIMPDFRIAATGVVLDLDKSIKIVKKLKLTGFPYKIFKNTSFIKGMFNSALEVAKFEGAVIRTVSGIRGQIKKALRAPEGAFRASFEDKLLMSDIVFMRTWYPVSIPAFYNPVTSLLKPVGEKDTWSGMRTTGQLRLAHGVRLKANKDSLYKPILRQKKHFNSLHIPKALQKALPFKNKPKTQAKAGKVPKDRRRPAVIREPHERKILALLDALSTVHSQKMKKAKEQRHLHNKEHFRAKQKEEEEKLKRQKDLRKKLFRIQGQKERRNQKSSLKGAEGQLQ
UniProt P21953: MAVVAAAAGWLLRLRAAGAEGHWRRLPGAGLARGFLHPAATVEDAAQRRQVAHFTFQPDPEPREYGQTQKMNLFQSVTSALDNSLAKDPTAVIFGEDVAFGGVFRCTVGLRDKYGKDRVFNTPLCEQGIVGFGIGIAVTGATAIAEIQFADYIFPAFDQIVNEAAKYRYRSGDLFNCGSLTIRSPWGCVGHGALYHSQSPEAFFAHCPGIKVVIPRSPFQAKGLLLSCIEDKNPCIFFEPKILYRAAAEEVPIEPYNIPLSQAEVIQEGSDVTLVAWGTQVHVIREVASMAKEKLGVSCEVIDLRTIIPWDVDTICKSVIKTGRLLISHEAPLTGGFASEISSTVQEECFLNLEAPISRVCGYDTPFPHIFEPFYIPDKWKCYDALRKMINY
UniProt Q9BQ61: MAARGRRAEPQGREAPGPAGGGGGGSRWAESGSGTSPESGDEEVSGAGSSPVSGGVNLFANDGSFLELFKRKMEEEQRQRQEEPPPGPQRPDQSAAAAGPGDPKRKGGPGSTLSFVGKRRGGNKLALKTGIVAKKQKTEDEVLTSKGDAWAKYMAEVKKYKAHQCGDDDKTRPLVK
UniProt Q9BTK6, whole entry: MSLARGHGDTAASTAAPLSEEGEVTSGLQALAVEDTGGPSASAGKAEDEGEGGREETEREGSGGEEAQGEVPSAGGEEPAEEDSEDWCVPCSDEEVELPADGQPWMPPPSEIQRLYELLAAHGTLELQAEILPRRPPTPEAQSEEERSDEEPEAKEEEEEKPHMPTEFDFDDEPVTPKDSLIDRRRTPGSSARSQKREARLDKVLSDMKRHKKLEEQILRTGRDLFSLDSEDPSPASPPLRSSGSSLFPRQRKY
UniProt Q96C57: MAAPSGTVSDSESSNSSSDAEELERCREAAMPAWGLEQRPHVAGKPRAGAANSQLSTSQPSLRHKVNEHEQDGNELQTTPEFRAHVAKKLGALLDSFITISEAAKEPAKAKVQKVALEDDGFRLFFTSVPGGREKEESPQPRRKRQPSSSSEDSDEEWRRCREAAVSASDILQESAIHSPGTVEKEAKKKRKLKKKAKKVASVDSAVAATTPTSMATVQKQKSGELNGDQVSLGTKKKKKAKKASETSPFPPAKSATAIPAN
UniProt Q96B45: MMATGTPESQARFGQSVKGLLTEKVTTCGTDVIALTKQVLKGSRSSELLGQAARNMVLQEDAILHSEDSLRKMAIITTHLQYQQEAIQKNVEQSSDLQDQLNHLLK
UniProt P46100: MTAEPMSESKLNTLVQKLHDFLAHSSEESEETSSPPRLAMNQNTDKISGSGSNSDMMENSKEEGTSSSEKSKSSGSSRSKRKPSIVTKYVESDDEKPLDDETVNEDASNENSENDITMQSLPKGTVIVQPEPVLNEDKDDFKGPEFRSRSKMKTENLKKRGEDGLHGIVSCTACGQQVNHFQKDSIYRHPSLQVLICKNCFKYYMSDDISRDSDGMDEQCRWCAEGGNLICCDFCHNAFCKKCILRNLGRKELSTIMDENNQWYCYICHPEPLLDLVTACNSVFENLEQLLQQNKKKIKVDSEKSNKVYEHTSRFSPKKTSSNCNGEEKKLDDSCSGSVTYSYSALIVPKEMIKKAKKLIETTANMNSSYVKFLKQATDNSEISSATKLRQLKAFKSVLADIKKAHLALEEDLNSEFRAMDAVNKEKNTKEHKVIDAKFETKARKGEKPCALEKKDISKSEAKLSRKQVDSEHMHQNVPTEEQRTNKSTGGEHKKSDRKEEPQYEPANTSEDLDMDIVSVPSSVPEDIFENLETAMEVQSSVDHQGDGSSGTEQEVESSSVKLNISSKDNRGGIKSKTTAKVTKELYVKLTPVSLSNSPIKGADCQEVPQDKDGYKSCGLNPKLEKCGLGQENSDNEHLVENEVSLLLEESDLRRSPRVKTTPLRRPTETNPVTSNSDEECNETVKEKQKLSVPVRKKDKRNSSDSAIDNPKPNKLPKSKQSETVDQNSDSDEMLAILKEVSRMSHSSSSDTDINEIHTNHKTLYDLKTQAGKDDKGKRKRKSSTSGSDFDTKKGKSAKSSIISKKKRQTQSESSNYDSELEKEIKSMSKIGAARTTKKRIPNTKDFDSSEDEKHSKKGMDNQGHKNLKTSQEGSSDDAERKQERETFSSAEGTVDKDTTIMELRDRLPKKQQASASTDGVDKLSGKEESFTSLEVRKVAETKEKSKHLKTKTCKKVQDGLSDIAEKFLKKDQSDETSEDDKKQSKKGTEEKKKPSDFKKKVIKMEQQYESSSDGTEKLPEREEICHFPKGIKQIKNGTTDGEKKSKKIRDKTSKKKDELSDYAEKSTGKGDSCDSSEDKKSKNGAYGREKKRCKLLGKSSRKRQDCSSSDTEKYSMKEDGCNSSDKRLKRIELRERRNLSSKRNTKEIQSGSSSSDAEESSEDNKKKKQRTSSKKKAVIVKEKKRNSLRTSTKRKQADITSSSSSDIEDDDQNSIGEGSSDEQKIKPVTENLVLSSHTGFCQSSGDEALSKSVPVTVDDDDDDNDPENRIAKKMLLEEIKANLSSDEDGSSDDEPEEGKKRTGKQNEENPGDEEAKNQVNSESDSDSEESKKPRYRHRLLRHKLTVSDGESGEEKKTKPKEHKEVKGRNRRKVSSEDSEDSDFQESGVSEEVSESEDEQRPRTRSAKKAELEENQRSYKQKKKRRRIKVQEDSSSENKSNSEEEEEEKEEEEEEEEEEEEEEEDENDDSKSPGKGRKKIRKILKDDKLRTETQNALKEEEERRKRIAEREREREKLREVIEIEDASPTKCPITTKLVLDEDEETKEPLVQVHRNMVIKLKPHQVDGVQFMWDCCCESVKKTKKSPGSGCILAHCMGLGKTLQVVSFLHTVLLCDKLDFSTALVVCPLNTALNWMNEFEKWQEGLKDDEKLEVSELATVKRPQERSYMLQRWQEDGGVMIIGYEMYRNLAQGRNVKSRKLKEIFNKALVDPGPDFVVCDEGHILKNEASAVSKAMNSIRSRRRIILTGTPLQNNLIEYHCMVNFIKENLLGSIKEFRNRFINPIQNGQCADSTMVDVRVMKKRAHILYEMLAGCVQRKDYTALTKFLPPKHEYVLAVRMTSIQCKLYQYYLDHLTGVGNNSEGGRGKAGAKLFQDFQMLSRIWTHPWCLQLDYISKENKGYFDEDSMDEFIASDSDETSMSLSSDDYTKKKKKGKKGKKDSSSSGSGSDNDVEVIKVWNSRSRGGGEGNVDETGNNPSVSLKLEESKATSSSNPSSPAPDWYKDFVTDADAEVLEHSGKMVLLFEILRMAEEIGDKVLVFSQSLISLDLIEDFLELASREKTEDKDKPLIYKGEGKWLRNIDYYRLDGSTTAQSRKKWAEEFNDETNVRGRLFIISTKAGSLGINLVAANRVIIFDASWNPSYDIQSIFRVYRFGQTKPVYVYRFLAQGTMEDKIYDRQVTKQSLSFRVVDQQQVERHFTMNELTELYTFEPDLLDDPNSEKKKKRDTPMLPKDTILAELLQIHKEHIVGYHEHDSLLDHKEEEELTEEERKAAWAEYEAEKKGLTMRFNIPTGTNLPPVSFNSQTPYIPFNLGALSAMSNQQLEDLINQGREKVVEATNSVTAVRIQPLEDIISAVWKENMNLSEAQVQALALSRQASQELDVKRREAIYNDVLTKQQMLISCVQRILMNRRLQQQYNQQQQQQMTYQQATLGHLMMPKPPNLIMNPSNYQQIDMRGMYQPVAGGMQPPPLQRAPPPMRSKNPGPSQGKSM
UniProt Q9H6D7: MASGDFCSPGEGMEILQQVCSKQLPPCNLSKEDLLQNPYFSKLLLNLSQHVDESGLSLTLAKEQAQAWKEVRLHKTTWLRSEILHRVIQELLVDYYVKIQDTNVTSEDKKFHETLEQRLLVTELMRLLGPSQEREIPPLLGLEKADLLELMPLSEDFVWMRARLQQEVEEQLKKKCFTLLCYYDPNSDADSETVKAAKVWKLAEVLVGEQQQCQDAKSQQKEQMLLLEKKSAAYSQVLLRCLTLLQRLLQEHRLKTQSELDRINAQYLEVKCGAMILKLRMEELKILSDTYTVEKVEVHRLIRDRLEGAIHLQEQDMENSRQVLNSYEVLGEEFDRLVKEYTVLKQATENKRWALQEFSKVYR

compound: COc1ccc(Cn2ccc3cc(C)c(C(=O)NO)cc32)cc1; experiment: dose-dependent thermal stabilisation call (2D-TPP, DLPTP, 10% FDR) (binary (1 = stabilised)); higher = stabilised by the compound; settings: system: HL-60 intact cells; concentration range 0.04-10 µM
Description: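 2D thermal proteome profiling in intact HL-60 cells treated with BRD-3811 (0, 0.04, 0.29, 2, 10 uM) for 90 min at 37 C, then heated 3 min at one of 12 temperatures (42-63.9 C). Soluble protein was quantified by TMT10 MS. The value is the DLPTP call of the paper: dose-dependent thermal stabilisation over all temperatures at 10% FDR (F-test of a dose-response against a flat model); one experiment, one call per tested protein.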

| Target | dose-dependent thermal stabilisation call |
| --- | --- |
| C11ORF2 | inactive: 0 |
| ATP6AP1 (UniProt Q15904) | inactive: 0 |
| BCCIP (UniProt Q9P287) | inactive: 0 |
| C16ORF14 (UniProt Q9BUT9) | inactive: 0 |
| UniProt B6HY63_HUMAN | inactive: 0 |
| ATXN3 (UniProt P54252) | inactive: 0 |
| C10ORF84 (UniProt Q9H8W3) | inactive: 0 |
| BIN2 (UniProt Q9UBW5) | inactive: 0 |
| B3GALT6 (UniProt Q96L58) | inactive: 0 |
| C10ORF18 (UniProt Q5VWN6) | inactive: 0 |
| BRI3BP (UniProt Q8WY22) | inactive: 0 |
| ATP5O (UniProt P48047) | inactive: 0 |
| ATP1A1 (UniProt P05023) | inactive: 0 |
| C11ORF73 (UniProt Q53FT3) | inactive: 0 |
| C14ORF126 (UniProt Q96FN9) | inactive: 0 |
| BMS1 (UniProt Q14692) | inactive: 0 |
| BRD8 (UniProt Q9H0E9) | inactive: 0 |
| BCL7C (UniProt Q8WUZ0) | inactive: 0 |
| BCKDHB (UniProt P21953) | inactive: 0 |
| C19ORF2 (UniProt O94763) | inactive: 0 |

2 records drawn at random from those above, as already listed:

| Target | dose-dependent thermal stabilisation call |
| --- | --- |
| ATXN3 (UniProt P54252) | inactive: 0 |
| C16ORF14 (UniProt Q9BUT9) | inactive: 0 |

Next results

| Target | dose-dependent thermal stabilisation call |
| --- | --- |
| C19ORF43 (UniProt Q9BQ61) | inactive: 0 |
| BICD2 (UniProt Q8TD16) | inactive: 0 |
| C16ORF53 (UniProt Q9BTK6) | inactive: 0 |
| C12ORF43 (UniProt Q96C57) | inactive: 0 |
| C16ORF84 (UniProt Q2VPK5) | inactive: 0 |
| BIRC2 (UniProt Q13490) | inactive: 0 |
| C17ORF80 (UniProt Q9BSJ5) | inactive: 0 |
| BAT2L (UniProt Q5JSZ5) | inactive: 0 |
| C10ORF32 (UniProt Q96B45) | inactive: 0 |
| C15ORF15 (UniProt Q9UHA3) | inactive: 0 |
| BMP2K (UniProt Q9NSY1) | inactive: 0 |
| BBC3 | inactive: 0 |
| ATP8 (UniProt P03928) | inactive: 0 |
| B4GALT3 (UniProt O60512) | inactive: 0 |
| ATP8A1 (UniProt Q9Y2Q0) | inactive: 0 |
| BCL2L11 (UniProt O43521) | inactive: 0 |
| ATP6V1H (UniProt Q9UI12) | inactive: 0 |
| ATP6V1A (UniProt P38606) | inactive: 0 |
| ATRX (UniProt P46100) | inactive: 0 |
| C14ORF94 (UniProt Q9H6D7) | inactive: 0 |
